Reference: patent US20240358767A1, “STEM CELL DIFFERENTIATION AND CHEMICAL COMPOUNDS” (VERTEX PHARMACEUTICALS INCORPORATED, priority 2021, published 2024)

Test system: Stem cells

For `Nc1ccc(C(=O)Nc2cccc(-c3nc(N4CCOCC4)c4oc5ncccc5c4n3)c2)cn1` [YM201636], which “nuclear blebbing in the resulting cell population” value is on record?
Its value is “not to induce”.
